Results: PMC11445241
These are yes or no findings as the source states them, for the method shown. Binding seen in cells or lysates may run through a third protein. Some entries that bind do so weakly or less than the wild type.

The chains behind the UniProt entries cited, without tags or fusion partners.
UniProt P04818: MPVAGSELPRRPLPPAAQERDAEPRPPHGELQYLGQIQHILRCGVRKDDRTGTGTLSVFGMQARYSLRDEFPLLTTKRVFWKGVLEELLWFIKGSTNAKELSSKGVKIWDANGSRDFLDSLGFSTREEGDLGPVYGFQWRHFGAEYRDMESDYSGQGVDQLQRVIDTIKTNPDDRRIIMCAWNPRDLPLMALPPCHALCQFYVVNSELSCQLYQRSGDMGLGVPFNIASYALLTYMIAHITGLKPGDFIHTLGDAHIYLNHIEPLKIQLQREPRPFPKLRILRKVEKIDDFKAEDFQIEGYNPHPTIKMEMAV
UniProt P53350: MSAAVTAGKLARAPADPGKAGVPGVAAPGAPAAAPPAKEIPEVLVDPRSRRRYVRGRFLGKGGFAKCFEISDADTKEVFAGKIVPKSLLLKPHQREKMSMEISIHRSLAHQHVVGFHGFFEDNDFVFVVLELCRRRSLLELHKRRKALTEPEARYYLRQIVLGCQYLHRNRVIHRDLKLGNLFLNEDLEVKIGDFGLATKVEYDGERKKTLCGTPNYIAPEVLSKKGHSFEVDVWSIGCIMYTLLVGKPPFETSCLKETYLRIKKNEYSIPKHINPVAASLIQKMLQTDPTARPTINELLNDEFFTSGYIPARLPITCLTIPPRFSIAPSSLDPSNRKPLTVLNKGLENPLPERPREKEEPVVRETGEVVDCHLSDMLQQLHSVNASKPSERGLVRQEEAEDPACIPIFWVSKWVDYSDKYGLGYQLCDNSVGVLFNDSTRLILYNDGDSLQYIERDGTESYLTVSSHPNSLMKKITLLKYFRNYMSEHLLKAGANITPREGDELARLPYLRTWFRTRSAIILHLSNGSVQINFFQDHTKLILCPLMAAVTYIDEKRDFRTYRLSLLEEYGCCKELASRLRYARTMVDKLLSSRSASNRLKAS

Assays:
[1] = target: Thymidylate synthase (TYMS) (human (endogenous in A875 and SK-MEL-110)) (UniProt P04818); experiment: co-IP; endogenous proteins in A875 and SK-MEL-110 cells lysed in weak RIPA buffer; primary antibody 8 h, protein A/G-agarose overnight at 4 °C, three washes with PBS, Western blot
GST-TYMS = GST-TYMS (UniProt P04818); experiment: pull-down; 2 mg GST-TYMS (or GST control) held on 50 μl glutathione agarose resin for 5 h at 4 °C and washed, then 2 mg myc-PLK1 protein overnight at 4 °C; washed, eluted, immunoblot; only the target purified

binding [1] | binding (GST-TYMS) | Substance
binds | – | Polo-like Kinase 1 (PLK1) (from UniProt P53350 1-603)
– | binds | myc-PLK1 (from UniProt P53350 1-603)
